Measured data: PubChem BioAssay AID1671195 (Yale University, 2021)

Screen: 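Genes whose knockdown alters LDL uptake in liver cancer cells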 (primary screen)
System: human Huh7 hepatoma cells
Reagent: siRNA pool against human genes, 18 nM
Timing: about 2 to 2.5 days of knockdown, then 8 h LDL uptake
Challenge: DiI-labelled LDL at 30 µg/ml for 8 h, in lipoprotein-deficient serum medium
Measured: 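Fluorescent LDL signal imaged in cells, scaled to the plate median, robust z-score for each replicate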
Scale: robust z-score: higher = more LDL uptake after knockdown
Call rule: 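a gene counts as active if at least two replicate z-scores exceed ±2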
The whole screen tested about 22,000 reagents; shown is a random part of them. In the full data, about 1,510 (6.9%) got an active call. 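Active includes knockdowns raising or lowering LDL uptake; positive z-scores mean more uptake, negative mean less.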 The numbers tell different reagents against one gene apart. Reagent sequences are not shown.

The first 5 entries, ahead of the listing:
gene,reagent no.,"robust z-score, replicate 1","robust z-score, replicate 2","robust z-score, replicate 3",call
OR1E1 (GeneID 8387),1,0.148,1.05,-0.112,inactive
IFITM2 (GeneID 10581),1,0.228,-0.349,-0.887,inactive
IFNA5 (GeneID 3442),1,0.224,0.133,0.864,inactive
OGFRL1 (GeneID 79627),1,-0.219,-0.588,-0.497,inactive
RPL7P34 (GeneID 389992),1,-0.119,-0.0536,0.179,inactive

Main list, repeating the preview:
gene,reagent no.,"robust z-score, replicate 1","robust z-score, replicate 2","robust z-score, replicate 3",call
OR1E1 (GeneID 8387),1,0.148,1.05,-0.112,inactive
IFITM2 (GeneID 10581),1,0.228,-0.349,-0.887,inactive
IFNA5 (GeneID 3442),1,0.224,0.133,0.864,inactive
OGFRL1 (GeneID 79627),1,-0.219,-0.588,-0.497,inactive
RPL7P34 (GeneID 389992),1,-0.119,-0.0536,0.179,inactive
RAB13 (GeneID 5872),1,-0.638,-1.18,-0.138,inactive
ANKRA2 (GeneID 57763),1,-0.236,-0.456,-0.603,inactive
NDUFS8 (GeneID 4728),1,0.373,0.775,0.0715,inactive
COMMD2 (GeneID 51122),1,0.852,-0.588,-0.85,inactive
STK39 (GeneID 27347),1,-1.15,-0.401,-0.104,inactive
RNF217 (GeneID 154214),1,0.288,0.712,0.674,inactive
TADA2A (GeneID 6871),1,0.87,0.688,0.749,inactive
LOC440114 (retired record) (GeneID 440114),1,-1.06,-0.792,-1.39,inactive
OR6M1 (GeneID 390261),1,-1.3,-1.29,-1.45,inactive
TMPRSS11BNL (GeneID 401136),1,0.608,0.811,0.698,inactive
PHETA1 (GeneID 144717),1,-1.27,-1.95,-0.914,inactive
LOC143158 (retired record) (GeneID 143158),1,-1.34,-2.36,-0.931,inactive
CIDEA (GeneID 1149),1,1.83,1.82,0.85,inactive
MIA (GeneID 8190),1,-0.188,1.36,2.57,inactive
LOC401954 (retired record) (GeneID 401954),1,0.0176,0.119,-0.394,inactive
TNFSF12 (GeneID 8742),1,-2.45,-1.06,-2.34,active
MS4A2 (GeneID 2206),1,1.95,0.994,1.12,inactive
RPS12P23 (GeneID 338870),1,-0.942,-1.15,-1.09,inactive
SEC61G (GeneID 23480),1,-2.1,-0.476,-1.56,inactive
PWP1 (GeneID 11137),1,-0.125,-0.638,-0.284,inactive
CLVS1 (GeneID 157807),1,-0.725,0.731,-0.667,inactive
UQCRC1 (GeneID 7384),1,0.254,0.00279,0.33,inactive
ATP5PD (GeneID 10476),1,-0.631,-1.58,0.108,inactive
LOC442111 (retired record) (GeneID 442111),1,-0.798,-0.789,-0.826,inactive
RTP3 (GeneID 83597),1,-0.565,0.243,-0.214,inactive
LOC139116 (retired record) (GeneID 139116),1,0.468,0.738,1.56,inactive
LCN1 (GeneID 3933),1,0.332,0.978,0.807,inactive
HSPA8P6 (GeneID 130195),1,-1.38,-1.51,-1.05,inactive
CLEC4GP1 (GeneID 440508),1,0.39,0.332,0.255,inactive
PCGF1 (GeneID 84759),1,0.189,-0.158,-0.232,inactive
ASB13 (GeneID 79754),1,0.139,0.354,0.103,inactive
FMNL2 (GeneID 114793),1,0.951,0.102,-0.0794,inactive
UBE2G1 (GeneID 7326),1,0.633,-0.576,0.289,inactive
QSOX1 (GeneID 5768),1,0.277,-0.701,-0.222,inactive
LOC440123 (retired record) (GeneID 440123),1,3.7,2.74,2.57,active
F2R (GeneID 2149),1,-1.38,-0.766,-1.54,inactive
TMEM120B (GeneID 144404),1,2.34,3.72,1.21,active
CYP2D6 (GeneID 1565),1,-0.308,-0.291,-0.381,inactive
BACE1 (GeneID 23621),1,-0.196,0.946,0.287,inactive
NECAB2 (GeneID 54550),1,-0.306,-0.368,-1.41,inactive
GCSAM (GeneID 257144),1,-0.0461,0.518,-0.0268,inactive
KRTAP23-1 (GeneID 337963),1,3.09,1.73,3.91,active
DPRX (GeneID 503834),1,-0.481,-1.19,-0.837,inactive
GABRR3 (GeneID 200959),1,0.00957,0.287,-0.0471,inactive
PCDHGA1 (GeneID 56114),1,-0.201,0.0399,-0.0714,inactive
COL9A1 (GeneID 1297),1,1.65,3.72,2.8,active
CCDC177 (GeneID 56936),1,0.434,0.692,1.62,inactive
GPX7 (GeneID 2882),1,-0.966,-0.303,-1.16,inactive
RNASE6 (GeneID 6039),1,2.09,1.68,1.81,inactive
OTOP3 (GeneID 347741),1,1.16,1.6,2.26,inactive
AIMP1 (GeneID 9255),1,-1.04,-0.864,-0.57,inactive
B3GALT5 (GeneID 10317),1,-0.999,-1.81,-1.57,inactive
KIAA1143 (GeneID 57456),1,-0.821,-0.567,-0.275,inactive
RPL7P6 (GeneID 90193),1,1.91,1.9,2.56,active
DSP (GeneID 1832),1,1.82,-0.952,0.979,inactive
BDKRB1 (GeneID 623),1,-2.13,0.635,0.264,inactive
LOC340549 (retired record) (GeneID 340549),1,1.45,1.31,1.63,inactive
CLK1 (GeneID 1195),1,1.52,0.69,1.32,inactive
DRAP1 (GeneID 10589),1,-0.333,-0.554,-0.695,inactive
CYP11B2 (GeneID 1585),1,-1.38,-1.42,-1.5,inactive
TSPAN15 (GeneID 23555),1,-1.24,-1.36,-1.21,inactive
TTC24 (GeneID 164118),1,4.9,4.84,4.55,active
ADGRG4 (GeneID 139378),1,-0.59,0.921,-0.0109,inactive
COL20A1 (GeneID 57642),1,-0.0617,0.102,1.71,inactive
ZFP2 (GeneID 80108),1,-0.568,-0.215,-0.109,inactive
ALS2CL (GeneID 259173),1,0.606,0.685,0.454,inactive
FHAD1 (GeneID 114827),1,0.497,-1.49,-0.848,inactive
ART3 (GeneID 419),1,0.402,-0.749,-0.0166,inactive
CDH18 (GeneID 1016),1,-0.679,-0.334,-0.542,inactive
USP34 (GeneID 9736),1,4.71,3.39,3.67,active
LOC256483 (retired record) (GeneID 256483),1,-1.13,-0.919,-0.897,inactive
MAL (GeneID 4118),1,-0.308,-0.73,-1.32,inactive
LOC387648 (retired record) (GeneID 387648),1,-0.703,-0.573,-0.768,inactive
CCDC28A (GeneID 25901),1,-0.425,0.585,1.4,inactive
LOC388526 (retired record) (GeneID 388526),1,-1.77,-1.41,-1.38,inactive
ZYX (GeneID 7791),1,1.45,0.892,2.07,inactive
LTA4H (GeneID 4048),1,-0.982,-0.433,-1.25,inactive
TTR (GeneID 7276),1,-0.163,-2.05,-1.4,inactive
AMTN (GeneID 401138),1,-1.4,-1.84,-1.62,inactive
BMX (GeneID 660),1,-0.0942,-0.744,1.31,inactive
RGSL1 (GeneID 353299),1,0.902,1.21,1.05,inactive
RGSL1 (GeneID 353299),2,-0.0495,0.59,0.296,inactive
